The target of this experiment is Unc5B receptor (mouse, endogenous) (mouse (endogenous in mouse brain endothelial cells and mouse brain)) (UniProt Q8K1S3). The experiment is described as follows: co-IP; Unc5B antibody (R&D, AF1006) or control IgG, protein A/G magnetic beads, RIPA buffer, overnight at 4 °C; lysate of cultured primary mouse brain microvascular endothelial cells; western blot.

The chains behind the UniProt entries cited, without tags or fusion partners. Residues count along the entry.
UniProt Q8K1S3, residues 27-945: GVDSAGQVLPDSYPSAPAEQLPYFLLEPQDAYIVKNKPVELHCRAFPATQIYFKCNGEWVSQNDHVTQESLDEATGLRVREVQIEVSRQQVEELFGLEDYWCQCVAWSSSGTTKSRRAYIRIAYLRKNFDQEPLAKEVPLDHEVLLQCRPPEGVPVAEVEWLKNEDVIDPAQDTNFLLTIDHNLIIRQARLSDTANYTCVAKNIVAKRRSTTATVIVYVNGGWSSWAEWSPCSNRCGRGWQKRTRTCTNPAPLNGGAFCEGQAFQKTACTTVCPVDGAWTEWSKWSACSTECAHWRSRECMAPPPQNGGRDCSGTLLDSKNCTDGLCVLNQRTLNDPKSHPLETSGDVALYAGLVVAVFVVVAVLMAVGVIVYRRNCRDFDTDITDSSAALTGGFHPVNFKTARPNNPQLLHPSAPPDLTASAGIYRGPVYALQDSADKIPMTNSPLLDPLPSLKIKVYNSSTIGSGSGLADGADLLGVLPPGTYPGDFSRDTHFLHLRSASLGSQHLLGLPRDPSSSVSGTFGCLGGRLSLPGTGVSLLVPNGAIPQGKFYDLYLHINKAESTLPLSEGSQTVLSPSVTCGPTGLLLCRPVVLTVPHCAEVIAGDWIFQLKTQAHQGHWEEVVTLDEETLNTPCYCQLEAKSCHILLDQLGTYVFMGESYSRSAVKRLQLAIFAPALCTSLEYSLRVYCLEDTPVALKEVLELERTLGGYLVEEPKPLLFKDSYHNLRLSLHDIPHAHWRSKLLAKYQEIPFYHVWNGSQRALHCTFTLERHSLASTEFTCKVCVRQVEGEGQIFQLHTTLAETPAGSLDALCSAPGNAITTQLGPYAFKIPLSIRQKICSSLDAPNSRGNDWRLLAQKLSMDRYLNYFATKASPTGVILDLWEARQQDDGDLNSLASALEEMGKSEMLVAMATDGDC

Results are given in words; binding and its absence hold for the method and conditions named. Binding seen in cells or lysates may run through a third protein. Some binding calls cover weakened binding; strength is not graded here.

B1: GPR124 (Wnt co-receptor; mouse, endogenous) (receptor, UniProt Q91ZV8 34-1336)
chain: APGCPVPIRGCKCSGERPKGLSGGAHNPARRRVVCGGGDLPEPPDPGLLPNGTITLLLSNNKITGLRNGSFLGLSLLEKLDLRSNVISTVQPGAFLGLGELKRLDLSNNRIGCLTSETFQGLPRLLRLNISGNIYSSLQPGVFDELPALKIVDFGTEFLTCDCRLRWLLPWARNHSLQLSERTLCAYPSALHAHALSSLQESQLRCEGALELHTHYLIPSLRQVVFQGDRLPFQCSASYLGNDTRIHWYHNGAPMESDEQAGIVLAENLIHDCTFITSELTLSHIGVWASGEWECSVSTVQGNTSKKVEIVVLETSASYCPAERVTNNRGDFRWPRTLAGITAYQSCLQYPFTSVPLSGGAPGTRASRRCDRAGRWEPGDYSHCLYTNDITRVLYTFVLMPINASNALTLAHQLRVYTAEAASFSDMMDVVYVAQMIQKFLGYVDQIKELVEVMVDMASNLMLVDEHLLWLAQREDKACSGIVGALERIGGAALSPHAQHISVNSRNVALEAYLIKPHSYVGLTCTAFQRREVGVSGAQPSSVGQDAPVEPEPLADQQLRFRCTTGRPNISLSSFHIKNSVALASIQLPPSLFSTLPAALAPPVPPDCTLQLLVFRNGRLFRSHGNNTSRPGAAGPGKRRGVATPVIFAGTSGCGVGNLTEPVAVSLRHWAEGADPMAAWWNQDGPGGWSSEGCRLRYSQPNVSSLYCQHLGNVAVLMELNAFPREAGGSGAGLHPVVYPCTALLLLCLFSTIITYILNHSSIHVSRKGWHMLLNLCFHMAMTSAVFVGGVTLTNYQMVCQAVGITLHYSSLSSLLWMGVKARVLHKELSWRAPPLEEGEAAPPGPRPMLRFYLIAGGIPLIICGITAAVNIHNYRDHSPYCWLVWRPSLGAFYIPVALILPITWIYFLCAGLHLRSHVAQNPKQGNRISLEPGEELRGSTRLRSSGVLLNDSGSLLATVSAGVGTPAPPEDGDGVYSPGVQLGALMTTHFLYLAMWACGALAVSQRWLPRVVCSCLYGVAASALGLFVFTHHCARRRDVRASWRACCPPASPSASHVPARALPTATEDGSPVLGEGPASLKSSPSGSSGRAPPPPCKLTNLQVAQSQVCEASVAARGDGEPEPTGSRGSLAPRHHNNLHHGRRVHKSRAKGHRAGETGGKSRLKALRAGTSPGAPELLSSESGSLHNSPSDSYPGSSRNSPGDGLPLEGEPMLTPSEGSDTSAAPIAETGRPGQRRSASRDNLKGSGSALERESKRRSYPLNTTSLNGAPKGGKYEDASVTGAEAIAGGSMKTGLWKSETTV
B1: the binding result is on record as “binds”.

B2: Frizzled4 (mouse, endogenous) (receptor, UniProt Q61088 37-537)
chain: FGDEEERRCDPIRIAMCQNLGYNVTKMPNLVGHELQTDAELQLTTFTPLIQYGCSSQLQFFLCSVYVPMCTEKINIPIGPCGGMCLSVKRRCEPVLREFGFAWPDTLNCSKFPPQNDHNHMCMEGPGDEEVPLPHKTPIQPGEECHSVGSNSDQYIWVKRSLNCVLKCGYDAGLYSRSAKEFTDIWMAVWASLCFISTTFTVLTFLIDSSRFSYPERPIIFLSMCYNIYSIAYIVRLTVGRERISCDFEEAAEPVLIQEGLKNTGCAIIFLLMYFFGMASSIWWVILTLTWFLAAGLKWGHEAIEMHSSYFHIAAWAIPAVKTIVILIMRLVDADELTGLCYVGNQNLDALTGFVVAPLFTYLVIGTLFIAAGLVALFKIRSNLQKDGTKTDKLERLMVKIGVFSVLYTVPATCVIACYFYEISNWALFRYSADDSNMAVEMLKIFMSLLVGITSGMWIWSAKTLHTWQKCSNRLVNSGKVKREKRGNGWVKPGKGNETVV
In the case of B2, the binding result is “binds”.

For the origin of these results see publication PMC8897508.
